The supplement of paper PMC10727501
This is one part of the list. Repeats in this data set agree poorly, so a single value says little.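 Free-swimming zebrafish larvae were assessed for O-bend response probability to dark flashes (naive: first five; training: remaining flashes across four 60-flash blocks; test: later 60-flash block) and for OMR turning toward alternating leftward/rightward LED motion. Six treated larvae were compared against sixty 0.1% DMSO controls; hits required |SSMD|≥2.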

Key:
Details in all cases: 10 µM; pre-incubation: 30-90 min
[1] = test system: Danio rerio larvae (5 dpf, TLF); experiment: OMR-Perf (SSMD vs DMSO vehicle); higher = higher than vehicle (e.g. higher dark-flash O-bend response probability, or better optomotor performance)
[2] = test system: Danio rerio larvae (5 dpf, TLF); experiment: Prob-Test (SSMD vs DMSO vehicle); higher = higher than vehicle (e.g. higher dark-flash O-bend response probability, or better optomotor performance)
[3] = test system: Danio rerio larvae (5 dpf, TLF); experiment: Prob-Naive (SSMD vs DMSO vehicle); higher = higher than vehicle (e.g. higher dark-flash O-bend response probability, or better optomotor performance)
[4] = test system: Danio rerio larvae (5 dpf, TLF); experiment: Prob-Train (SSMD vs DMSO vehicle); higher = higher than vehicle (e.g. higher dark-flash O-bend response probability, or better optomotor performance)

Compound	OMR-Perf [1]	Prob-Test [2]	Prob-Naive [3]	Prob-Train [4]
CCOC(=O)C1=C(COCCN)NC(C)=C(C(=O)OC)C1c1ccccc1Cl.O=S(=O)(O)c1ccccc1 (stereo unspecified) [Amlodipine besylate (Norvasc)]	-0.00296	0.808	-0.525	0.0166
Cn1cnc2c(F)c(Nc3ccc(Br)cc3Cl)c(C(=O)NOCCO)cc21 [Selumetinib (AZD6244)]	-0.0468	0.14	0.125	0.00484
Cn1cnc(-c2cc3nccc(Oc4ccc(NC(=S)NC(=O)Cc5ccccc5)cc4F)c3s2)c1	-0.693	-0.575	-0.0595	-0.6
COC(=O)N=NC=C1C=[N+]([O-])c2ccccc2N1O [Carbadox]	0.472	0.419	-0.0763	0.652
Cl.Cl.NCCc1c[nH]cn1 [Histamine 2HCl]	-0.293	-0.0995	0.389	0.198
CCN1CCN(c2cc(-c3ccc(F)cc3)c3c(n2)CCCCCC3)CC1 [Blonanserin (Lonasen)]	-0.768	-1.52	0.0509	-0.607
Cn1nc(C(C)(C)C)cc1C(=O)N[C@@H](Cc1cccc(Cl)c1)C(=O)NCC#N [Cathepsin Inhibitor 1]	-0.242	0.203	0.176	0.0222
CC(C)c1noc(N2CCC(COc3ccc(-c4ccc(S(C)(=O)=O)cc4)nc3)CC2)n1	-0.684	-1.03	-0.361	-0.821
COc1ccc(C2(C#N)CCC(C(=O)O)CC2)cc1OC1CCCC1 (stereo unspecified) [Cilomilast]	-0.308	-0.97	-0.724	-2.26
CC(C(=O)O)c1cccc(C(=O)c2ccccc2)c1 (stereo unspecified) [Ketoprofen]	-0.431	0.0123	-0.0588	0.0493
Cc1cc(C(C)Nc2ccccc2)c2nc(N3CCOCC3)cc(=O)n2c1 (stereo unspecified)	0.115	0.424	0.471	0.667
CC(C)c1cc(-c2ccc(F)c3ccccc23)nc(N)n1	-0.445	-0.998	-1.75	-2.07
Cl.N=C(N)NC(=N)NCCc1ccccc1 [Phenformin HCl]	0.254	-0.532	-0.06	-0.273
O.O.O=c1c(O)c(-c2ccc(O)c(O)c2)oc2cc(O)cc(O)c12 [Quercetin Dihydrate]	-0.342	-0.304	-0.0925	-0.242
NC(=O)N/N=C/c1ccc([N+](=O)[O-])o1 [Nitrofural]	0.0352	-0.091	0.493	0.167
CC(C)NCC(O)c1ccc(NS(C)(=O)=O)cc1.Cl (stereo unspecified) [Sotalol]	0.22	-0.0514	-0.558	-0.32
O=C(O)c1ccc(NC(=O)[C@H](Cc2ccc(O)cc2)NC(=O)c2ccccc2)cc1 [Bentiromide]	0.115	0.307	0.444	0.385
Cc1cn(C2C=CC(CO)O2)c(=O)[nH]c1=O (stereo unspecified) [Stavudine (d4T)]	0.352	0.394	-0.0197	0.842
CC(=O)c1cc([N+](=O)[O-])c(Sc2cccc(Cl)c2Cl)s1	-1.07	-2.23	-1.55	-1.62
Cc1ccccc1-n1c(Cn2nc(-c3cccc(O)c3)c3c(N)ncnc32)nc2cccc(C)c2c1=O	0.299	-0.874	-0.13	-0.192
CC(C)c1nc(CN(C)C(=O)N[C@H](C(=O)N[C@@H](Cc2ccccc2)C[C@H](O)[C@H](Cc2ccccc2)NC(=O)OCc2cncs2)C(C)C)cs1 [Ritonavir]	0.209	0.366	-0.00433	0.608
COc1ccc(-c2cc(=O)c3c(OC)c(OC)c(OC)c(OC)c3o2)cc1OC [Nobiletin]	-0.421	-1.66	-1.07	-1.73
CN1CC[C@@H](c2c(O)cc(O)c3c(=O)cc(-c4ccccc4Cl)oc23)[C@@H]1CO.Cl	-0.115	-0.077	0.227	-0.472
NC1(C(=O)N[C@@H](CCO)c2ccc(Cl)cc2)CCN(c2ncnc3[nH]ccc23)CC1	0.0249	0.000671	0.456	-0.582
COc1ccc(C(=O)CC(=O)c2ccc(C(C)(C)C)cc2)cc1 [Avobenzone]	0.117	-1.18	-0.286	-0.854
CC1COc2c(N3CCN(C)CC3)c(F)cc3c(=O)c(C(=O)O)cn1c23 (stereo unspecified) [Ofloxacin (Floxin)]	0.529	-0.177	0.134	0.0959
CCNC(=O)CCC/C=C\C[C@@H]1[C@@H](/C=C/C(O)CCc2ccccc2)[C@H](O)C[C@@H]1O (stereo partly specified) [Bimatoprost]	-0.376	-0.0812	0.471	-0.452

Compound	OMR-Perf [1]	Prob-Test [2]	Prob-Naive [3]	Prob-Train [4]
Cl.N=C(N)NC(=O)c1nc(Cl)c(N)nc1N.O.O [Amiloride hydrochloride dihydrate]	-0.476	0.0723	-0.409	0.225
O=C(c1cncc(Br)c1)N1CCC(N2CCCC2)CC1	0.393	-0.121	-0.22	-0.195
CC(/C=C/C(=O)NO)=C\[C@@H](C)C(=O)c1ccc(N(C)C)cc1 [Trichostatin A (TSA)]	-0.254	-0.221	0.489	0.383
OC[C@H]1O[C@@H](Oc2cc(O)cc(/C=C/c3ccc(O)cc3)c2)[C@@H](O)[C@@H](O)[C@@H]1O [Polydatin]	-0.254	-0.662	0.208	-0.16
Cc1nc2n(c(=O)c1CCN1CCC(c3noc4cc(F)ccc34)CC1)CCCC2 [Risperidone]	-0.675	-1.33	-0.521	-0.662
CN(C)CC(c1ccc(O)cc1)C1(O)CCCCC1 (stereo unspecified) [Desvenlafaxine]	0.713	0.608	0.213	-0.211
Cl.Cl.OCCOCCN1CCN(C(c2ccccc2)c2ccc(Cl)cc2)CC1 (stereo unspecified) [Hydroxyzine 2HCl]	-0.237	-0.33	0.389	-0.0576
Cn1cc(CNCC2CCN(c3ncc(C(=O)NO)cn3)CC2)c2ccccc21	-0.268	0.195	0.233	0.0894
O=C(/C=C/c1ccc(CN(CCO)CCc2c[nH]c3ccccc23)cc1)NO [LAQ824 (Dacinostat)]	-0.199	0.485	0.233	0.258
Cc1[nH]c(/C=C2/C(=O)Nc3ccc(S(=O)(=O)N(C)c4cccc(Cl)c4)cc32)c(C)c1C(=O)N1CCN(C)CC1	0.658	-0.219	-0.0643	-0.558
CC(C(=O)O)c1ccc2c(c1)Cc1cccnc1O2 (stereo unspecified) [Pranoprofen]	1.11	0.583	-0.0225	0.0166
NC[C@H]1CC[C@@H](C(=O)O)CC1 [Tranexamic Acid]	0.0904	-0.366	0.471	-0.362
Cc1c[nH]c(-c2cnc(NCCNc3ccc(C#N)cn3)nc2-c2ccc(Cl)cc2Cl)n1.Cl	-0.242	-1.03	-0.17	-0.0996
O=C(O)c1cc2cccc([N+](=O)[O-])c2[nH]1	-0.14	0.206	-0.294	0.0945
Cc1ccc(O)c([C@H](CCN(C(C)C)C(C)C)c2ccccc2)c1.O=C(O)[C@H](O)[C@@H](O)C(=O)O [Tolterodine tartrate]	-0.594	0.239	-0.0304	-0.38
Nc1ncnc2c1ncn2[C@H]1O[C@H](CO)[C@@H](O)[C@H]1O [Adenosine]	-0.403	-0.173	0.454	0.0525
CN1CCOC(c2ccccc2)c2ccccc2C1.Cl (stereo unspecified) [Nefopam HCl]	0.731	-0.145	-0.212	-0.498
CCn1cc(C(=O)O)c(=O)c2cc(F)c(N3CCN(C)CC3)cc21.CS(=O)(=O)O [Pefloxacin Mesylate]	0.216	-0.806	0.26	-0.574
CN1CC(=O)N2[C@H](c3ccc4c(c3)OCO4)c3[nH]c4ccccc4c3C[C@@H]2C1=O [Tadalafil]	0.124	0.122	-0.293	0.54
CN(C)[C@@H]1C(=O)C(C(=O)NCN2CCCC2)=C(O)[C@@]2(O)C(=O)C3=C(O)c4c(O)cccc4[C@@](C)(O)[C@H]3C[C@@H]12 [Rolitetracycline]	-0.502	0.00522	0.0912	-0.184
C[C@]12CC[C@H]3c4ccc(O)cc4CC[C@H]3[C@@H]1CC[C@H]2O [Estradiol]	0.256	-0.044	0.121	-0.848
N[C@H](C(=O)O)[C@H](O)c1ccc(O)c(O)c1 [Droxidopa (L-DOPS)]	0.289	-0.118	0.549	0.00119
O.O=[Si]=O.O=[Si]=O.O=[Si]=O.O=[Si]=O.[O]=[Mg].[O]=[Mg].[O]=[Mg]	-0.402	-0.671	-0.378	-0.305
O=c1[nH]c(=O)n([C@H]2C[C@H](O)[C@@H](CO)O2)cc1I [Idoxuridine]	0.0315	-0.0424	-0.183	0.0323
COc1cccc2c1C(=O)c1c(O)c3c(c(O)c1C2=O)C[C@@](O)(C(=O)CO)C[C@@H]3O[C@H]1C[C@H](N)[C@H](O[C@@H]2CCCCO2)[C@H](C)O1 [Pirarubicin]	-0.3	-0.238	-0.0458	-0.656
Cn1c(=O)c(F)c(Nc2ccc(I)cc2F)c2c(=O)n(C[C@@H](O)CO)cnc21	-0.827	-1.87	0.515	-1.82
Cc1ccnc2c1NC(=O)c1cccnc1N2C1CC1 [Nevirapine]	0.29	0.313	0.239	0.0721

Single records, from the list above. Values in the order: OMR-Perf [1]	Prob-Test [2]	Prob-Naive [3]	Prob-Train [4]
COc1cccc2c1C(=O)c1c(O)c3c(c(O)c1C2=O)C[C@@](O)(C(=O)CO)C[C@@H]3O[C@H]1C[C@H](N)[C@H](O[C@@H]2CCCCO2)[C@H](C)O1 [Pirarubicin] in the list: -0.3	-0.238	-0.0458	-0.656
O=C(/C=C/c1ccc(CN(CCO)CCc2c[nH]c3ccccc23)cc1)NO [LAQ824 (Dacinostat)] in the list: -0.199	0.485	0.233	0.258
Cc1ccnc2c1NC(=O)c1cccnc1N2C1CC1 [Nevirapine] in the list: 0.29	0.313	0.239	0.0721
